# Experimental data as given in article doi:10.1101/2024.03.09.584257.
# No constants are given. Whether binding was seen depends on the method and setting.
# T1: Pae Csy complex (Pseudomonas aeruginosa) (UniProt Q02ML9)
# T1 sequence 1: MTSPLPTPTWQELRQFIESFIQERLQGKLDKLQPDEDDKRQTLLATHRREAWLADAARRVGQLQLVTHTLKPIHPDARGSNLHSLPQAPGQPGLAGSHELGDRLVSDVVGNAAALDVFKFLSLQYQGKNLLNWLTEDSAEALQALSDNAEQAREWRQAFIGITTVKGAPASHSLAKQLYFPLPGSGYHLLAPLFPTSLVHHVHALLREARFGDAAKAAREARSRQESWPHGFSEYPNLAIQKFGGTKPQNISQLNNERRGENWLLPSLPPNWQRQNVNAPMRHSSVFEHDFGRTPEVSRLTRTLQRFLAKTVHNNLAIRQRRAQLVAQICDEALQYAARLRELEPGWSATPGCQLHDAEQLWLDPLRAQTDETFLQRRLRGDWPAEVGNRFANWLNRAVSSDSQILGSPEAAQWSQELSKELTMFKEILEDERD
# T1 sequence 2: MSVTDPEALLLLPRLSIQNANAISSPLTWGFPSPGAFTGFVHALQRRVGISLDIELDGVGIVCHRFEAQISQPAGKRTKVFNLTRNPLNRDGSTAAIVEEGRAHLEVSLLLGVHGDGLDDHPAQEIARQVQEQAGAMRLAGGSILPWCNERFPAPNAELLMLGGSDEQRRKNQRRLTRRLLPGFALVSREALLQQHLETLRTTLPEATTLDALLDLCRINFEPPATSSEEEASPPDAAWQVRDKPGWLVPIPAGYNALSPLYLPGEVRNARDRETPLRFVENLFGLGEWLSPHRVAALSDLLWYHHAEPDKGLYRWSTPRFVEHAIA
# T1 sequence 3: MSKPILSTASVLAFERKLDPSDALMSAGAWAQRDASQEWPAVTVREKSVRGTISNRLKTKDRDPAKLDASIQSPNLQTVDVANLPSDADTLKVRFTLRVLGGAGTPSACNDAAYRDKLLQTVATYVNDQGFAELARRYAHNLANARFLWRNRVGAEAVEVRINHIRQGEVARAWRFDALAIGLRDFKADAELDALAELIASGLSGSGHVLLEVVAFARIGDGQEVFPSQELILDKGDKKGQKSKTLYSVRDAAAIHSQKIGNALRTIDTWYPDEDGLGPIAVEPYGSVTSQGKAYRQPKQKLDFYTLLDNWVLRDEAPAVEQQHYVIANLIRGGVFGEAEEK
# T1 sequence 4: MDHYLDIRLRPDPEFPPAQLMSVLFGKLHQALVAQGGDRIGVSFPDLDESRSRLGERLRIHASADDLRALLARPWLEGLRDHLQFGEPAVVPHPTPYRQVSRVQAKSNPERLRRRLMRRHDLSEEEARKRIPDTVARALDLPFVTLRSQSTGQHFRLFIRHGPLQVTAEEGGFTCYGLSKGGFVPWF
# B1: Pae Cas1 (protein, UniProt Q02ML7 1-324)
# chain: MDDISPSELKTILHSKRANLYYLQHCRVLVNGGRVEYVTDEGRHSHYWNIPIANTTSLLLGTGTSITQAAMRELARAGVLVGFCGGGGTPLFSANEVDVEVSWLTPQSEYRPTEYLQRWVGFWFDEEKRLVAARHFQRARLERIRHSWLEDRVLRDAGFAVDATALAVAVEDSARALEQAPNHEHLLTEEARLSKRLFKLAAQATRYGEFVRAKRGSGGDPANRFLDHGNYLAYGLAATATWVLGIPHGLAVLHGKTRRGGLVFDVADLIKDSLILPQAFLSAMRGDEEQDFRQACLDNLSRAQALDFMIDTLKDVAQRSTVSA
# Molecular target: T1, Pae Csy complex (Pseudomonas aeruginosa)
# Assay: native gel or EMSA
binder,measurement,value
B1,binding,no binding
